Source: PubChem BioAssay AID1159578 (Peter MacCallum Cancer Centre, 2015)

Test: 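Genome-wide hunt for genes controlling movement of lymphatic endothelial cells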 (primary screen)
Cells: human lymphatic endothelial cells
Knock-down reagent: siRNA pool against human genes, 40 nM
Duration: 48 h after transfection
Measurement: 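Cells stained with dye and imaged after a scratch; covered wound area and nuclei counted, duplicates averaged, migration set against mock wells and turned into a robust z-score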
Direction: migration robust z-score: higher = faster migration into the scratch; nuclei per well: higher = more cells in the well
Call rule: 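Pools averaging fewer than 3300 nuclei are never called; remaining pools count as changed when migration robust z lies outside -2 to 2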
Meaning of the calls: active = migration changed; inactive = no migration change, or too few cells
This is an unselected part of about 18,000 reagents. About 1,030 of them (5.7%) were called active. 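Inactive calls also include pools with fewer than 3300 nuclei, whose migration was not assessed.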 Raw values vary from plate to plate and are shown uncorrected. The numbers tell different reagents against one gene apart. Not all columns of the deposit are shown. No sequences are given here.

For MEFV, what does the deposit list?
migration robust z-score: 0.64; migration class with cell-count check: migration z between -2 and 2; enough cells; nuclei per well, duplicate mean: 6448; Call: inactive

What is on record for ZBTB22?
migration robust z-score: 0.54; migration class with cell-count check: migration z between -2 and 2; enough cells; nuclei per well, duplicate mean: 5534; Call: inactive

For DEFA4, how do the results read?
migration robust z-score: -0.25; migration class with cell-count check: migration z between -2 and 2; enough cells; nuclei per well, duplicate mean: 4525; Call: inactive

With DDI2 #1, how do the results read?
migration robust z-score: -0.08; migration class with cell-count check: migration z between -2 and 2; enough cells; nuclei per well, duplicate mean: 5055; Call: inactive

With DDI2 #2, what was measured?
migration robust z-score: 1.27; migration class with cell-count check: migration z between -2 and 2; enough cells; nuclei per well, duplicate mean: 4829; Call: inactive

For THAP2, how do the results read?
migration robust z-score: -0.37; migration class with cell-count check: migration z between -2 and 2; enough cells; nuclei per well, duplicate mean: 5686; Call: inactive

Which result is listed for CTSL3P?
migration robust z-score: 0.96; migration class with cell-count check: migration z between -2 and 2; enough cells; nuclei per well, duplicate mean: 5114; Call: inactive

With HSD17B10, how do the results read?
migration robust z-score: -1.03; migration class with cell-count check: migration z between -2 and 2; enough cells; nuclei per well, duplicate mean: 5910; Call: inactive

What is on record for GSPT2?
migration robust z-score: 0.18; migration class with cell-count check: migration z between -2 and 2; enough cells; nuclei per well, duplicate mean: 4570; Call: inactive

For CCR6, what does the deposit list?
migration robust z-score: -0.13; migration class with cell-count check: migration z between -2 and 2; enough cells; nuclei per well, duplicate mean: 4410; Call: inactive

For RPN2, what does the deposit list?
migration robust z-score: -1.78; migration class with cell-count check: migration z between -2 and 2; enough cells; nuclei per well, duplicate mean: 5704; Call: inactive

What is on record for SLC37A3?
migration robust z-score: -0.26; migration class with cell-count check: migration z between -2 and 2; enough cells; nuclei per well, duplicate mean: 3958; Call: inactive

What did the screen give for F10?
migration robust z-score: -0.47; migration class with cell-count check: migration z between -2 and 2; enough cells; nuclei per well, duplicate mean: 4650; Call: inactive

For CARTPT, what does the deposit list?
migration robust z-score: -0.78; migration class with cell-count check: migration z between -2 and 2; enough cells; nuclei per well, duplicate mean: 4956; Call: inactive

With WNT9A, what was measured?
migration robust z-score: -0.8; migration class with cell-count check: migration z between -2 and 2; enough cells; nuclei per well, duplicate mean: 5783; Call: inactive

Which result is listed for FAM186B?
migration robust z-score: 0.79; migration class with cell-count check: migration z between -2 and 2; enough cells; nuclei per well, duplicate mean: 4374; Call: inactive

What did the screen give for SMAD2?
migration robust z-score: 1.38; migration class with cell-count check: migration z between -2 and 2; enough cells; nuclei per well, duplicate mean: 6316; Call: inactive

For USO1, what does the deposit list?
migration robust z-score: -1.15; migration class with cell-count check: migration z between -2 and 2; enough cells; nuclei per well, duplicate mean: 5304; Call: inactive

How did the screen score KRT82?
migration robust z-score: -0.45; migration class with cell-count check: migration z between -2 and 2; enough cells; nuclei per well, duplicate mean: 6268; Call: inactive

With CRHR2, what was measured?
migration robust z-score: 0.8; migration class with cell-count check: migration z between -2 and 2; enough cells; nuclei per well, duplicate mean: 6526; Call: inactive

With F13A1, what was measured?
migration robust z-score: 1.48; migration class with cell-count check: migration z between -2 and 2; enough cells; nuclei per well, duplicate mean: 6982; Call: inactive

What is on record for HSPA14?
migration robust z-score: -0.2; migration class with cell-count check: migration z between -2 and 2; enough cells; nuclei per well, duplicate mean: 4492; Call: inactive

What is on record for FHOD3?
migration robust z-score: -0.58; migration class with cell-count check: migration z between -2 and 2; enough cells; nuclei per well, duplicate mean: 4450; Call: inactive

For OR8B3, what does the deposit list?
migration robust z-score: -0.05; migration class with cell-count check: migration z between -2 and 2; enough cells; nuclei per well, duplicate mean: 5920; Call: inactive

For COL23A1, what does the deposit list?
migration robust z-score: 0.56; migration class with cell-count check: migration z between -2 and 2; enough cells; nuclei per well, duplicate mean: 4544; Call: inactive

What did the screen give for TSPAN3?
migration robust z-score: 1.38; migration class with cell-count check: migration z between -2 and 2; enough cells; nuclei per well, duplicate mean: 6404; Call: inactive

With BCL2L12, what was measured?
migration robust z-score: -1.56; migration class with cell-count check: migration z between -2 and 2; enough cells; nuclei per well, duplicate mean: 4798; Call: inactive

Limited to “nuclei per well, duplicate mean”, for 5 of the entries above:
KRT82 = 6268
CRHR2 = 6526
F13A1 = 6982
HSPA14 = 4492
FHOD3 = 4450
